# From PubChem BioAssay AID330 (DTP/NCI, 2004)
# The list does not hold the whole screen: it is rich in T/C values a quarter to a half above the control, in often repeated tests (any T/C) and in doses without a T/C. Other doses and runs of a compound stand elsewhere. T/C: endpoint of the treated group in % of that of the vehicle group. Some entries give survivors of the animals treated and no T/C: the source files T/C as zero there, which appears to mark a toxic dose or a test without result, not a measured value. Some doses without a T/C left all or most animals alive at the check, yet need not have been tolerated: survival well below the control is almost never listed, so the zero probably covers shortened survival too. Counts of survivors are from the toxicity check (mostly the fifth day) where no day follows; animals may have died later. Schedule codes are those of the source, taken here to give the interval after Q, in days (D) or hours (H), and the number of doses after X. Some entries hold several experiments; the results are listed from low to high. Where survival is the endpoint, this PubChem deposit counts one and a half times the control or more as active, and values a quarter to a half above the control carry no call in these data; other NCI protocols may use other cut-offs. Some T/C values carry the count of animals alive at the toxicity check (mostly the fifth day); where none is given, no animal had died by that day. Additions like (4×) give the number of equal values in this list.
# Tested on: P388 leukemia ip, CD2F1 mice, survival T/C
# Assay: NCI In Vivo Anticancer Drug Screen. Data for tumor model P388 Leukemia (intraperitoneal) in CD2F1 (CDF1) mice
# Conditions: T/C endpoint: median survival time, vehicle: Klucel (hydroxypropylcellulose) (HPC), higher T/C = longer survival
# [1] = dose: 50.0 mg/kg/injection, schedule: Q01DX001 (ip)
# [2] = dose: 100.0 mg/kg/injection, schedule: Q01DX001 (ip)
# [3] = dose: 200.0 mg/kg/injection, schedule: Q01DX001 (ip)
# [4] = dose: 400.0 mg/kg/injection, schedule: Q01DX001 (ip)
smiles,measurement,setting,value
O=C1C=CN(C2OC(CO)C(O)C2O)C(=O)C1 (stereo not given),T/C,[1],"95, 96 (3×), 98 (3×), 99 (2×), 100 (4×), 100 [4 of 6 alive], 101, 102 (3×), 103, 107 (2×), 108, 109 (3×), 110, 112, 113, 115, 118 % of control"
same,survivor count,[1],6 of 6
same,T/C,"dose: 50.0 mg/kg/injection, schedule: Q01DX005 (ip), evaluated on day 30","91, 96, 107 (2×), 109, 111, 113 (2×), 114 (2×), 114 [5 of 6 alive], 115, 117, 119 (2×), 120 (2×), 121 (2×), 122, 123 (3×), 125, 126, 127, 128 (3×), 129, 132, 140 % of control"
same,T/C,"dose: 50.0 mg/kg/injection, schedule: Q01DX005 (ip), evaluated on day 35",140 % of control [5 of 6 alive]
same,T/C,"dose: 50.0 mg/kg/injection, schedule: Q01DX009 (ip), evaluated on day 30","96, 98 (2×), 100 (2×), 106 (2×), 107 (3×), 108, 109 [5 of 6 alive], 110, 117 (2×), 118, 119 (3×), 120 [2 of 3 alive], 121, 122, 125, 127 (4×), 128 (2×), 129 (2×), 130, 131 % of control"
same,T/C,"dose: 50.0 mg/kg/injection, schedule: Q01DX009 (ip), evaluated on day 35",100 and 104 % of control
same,T/C,"dose: 50.0 mg/kg/injection, schedule: Q04DX002 (ip), evaluated on day 30","91, 98 [4 of 6 alive], 99, 100, 101 (2×), 102 (2×), 104, 105, 106, 107, 108 (3×), 109 (3×), 110 (4×), 112 (3×), 113, 116, 117 (2×), 118, 119, 120, 134 % of control"
same,T/C,"dose: 50.0 mg/kg/injection, schedule: Q04DX002 (ip), evaluated on day 35","90 [5 of 6 alive], 104, 109 % of control"
same,survivor count,"dose: 50.0 mg/kg/injection, schedule: Q04DX002 (ip)",5 of 6 and 3 of 3
same,T/C,"dose: 50.0 mg/kg/injection, schedule: Q04DX003 (ip)","98, 99, 100, 102 (2×), 103 (2×), 104 (5×), 105, 106 (3×), 107 (2×), 108 (3×), 109 (2×), 110, 111 (2×), 112, 113, 114 (3×), 115, 118, 122 % of control"
same,T/C,[2],"90, 93, 94, 96 (3×), 98, 99, 99 [2 of 3 alive], 100, 101 (2×), 103, 104 (2×), 105 (4×), 107, 108 (2×), 109 (2×), 110, 112, 113 (2×), 115 (2×), 117 % of control"
same,survivor count,[2],6 of 6
same,T/C,"dose: 100.0 mg/kg/injection, schedule: Q01DX005 (ip), evaluated on day 30","86, 93, 100, 103, 109, 115, 116, 117 (2×), 118, 119 (4×), 120, 121, 122 (2×), 123 (4×), 124 (2×), 128 (2×), 131, 132, 133, 134, 139, 151 % of control"
same,T/C,"dose: 100.0 mg/kg/injection, schedule: Q01DX005 (ip), evaluated on day 35",94 % of control
same,T/C,"dose: 100.0 mg/kg/injection, schedule: Q01DX009 (ip), evaluated on day 30","89, 93 [5 of 6 alive], 94, 100 (3×), 102, 106, 107 (2×), 107 [5 of 6 alive], 108 (2×), 112 (3×), 117 (2×), 118 (2×), 119, 120, 122, 123 (2×), 125, 127, 129, 130, 144, 145, 150 % of control"
same,T/C,"dose: 100.0 mg/kg/injection, schedule: Q01DX009 (ip), evaluated on day 35",112 [5 of 6 alive] and 119 % of control
same,survivor count,"dose: 100.0 mg/kg/injection, schedule: Q01DX009 (ip)",5 of 6
same,T/C,"dose: 100.0 mg/kg/injection, schedule: Q04DX002 (ip), evaluated on day 30","101 (2×), 102, 103 (2×), 104 (3×), 105 (3×), 106, 107 (3×), 108, 108 [2 of 3 alive], 109 (2×), 110 (6×), 111, 113 (2×), 115 (2×), 117 (2×), 118 % of control"
same,T/C,"dose: 100.0 mg/kg/injection, schedule: Q04DX002 (ip), evaluated on day 35","96, 102, 118 % of control"
same,survivor count,"dose: 100.0 mg/kg/injection, schedule: Q04DX002 (ip)",3 of 3 and 6 of 6
same,T/C,"dose: 100.0 mg/kg/injection, schedule: Q04DX003 (ip)","95, 96, 102 (3×), 104 (2×), 106, 107, 108 (6×), 109, 110 (3×), 111 (2×), 112, 113 (3×), 114 (2×), 115 (3×), 116, 117, 121, 125 % of control"
same,T/C,[3],"89, 95, 96, 101, 102, 103 (3×), 103 [2 of 3 alive], 104 (2×), 105 (3×), 106 (3×), 107 (3×), 108 (3×), 109 (2×), 110 (2×), 111, 113 (2×), 114 % of control"
same,survivor count,[3],6 of 6
same,T/C,"dose: 200.0 mg/kg/injection, schedule: Q01DX005 (ip), evaluated on day 30","111, 112, 114 (2×), 115 (3×), 116 (2×), 122 (4×), 123, 125 (2×), 126, 128 (2×), 130, 132, 133 (2×), 134 (2×), 137, 138, 147 % of control"
same,T/C,"dose: 200.0 mg/kg/injection, schedule: Q01DX005 (ip), evaluated on day 35",87 % of control
same,survivor count,"dose: 200.0 mg/kg/injection, schedule: Q01DX005 (ip)",3 of 3 and 6 of 6
same,T/C,"dose: 200.0 mg/kg/injection, schedule: Q01DX009 (ip), evaluated on day 30","89, 90, 93, 94, 97 (3×), 99, 100, 103, 106, 108, 110 (2×), 111, 112 (3×), 113, 114 (3×), 116, 119, 121, 123, 126, 127 (2×), 129 % of control (2×)"
same,T/C,"dose: 200.0 mg/kg/injection, schedule: Q01DX009 (ip), evaluated on day 35",98 and 114 % of control
same,survivor count,"dose: 200.0 mg/kg/injection, schedule: Q01DX009 (ip)",2 of 3 and 3 of 3
same,T/C,"dose: 200.0 mg/kg/injection, schedule: Q04DX002 (ip), evaluated on day 30","94, 95, 99, 102, 103, 105 (2×), 106 (2×), 107 (4×), 108 (4×), 109 (4×), 110 (4×), 111 (2×), 113 (3×), 117, 118, 128 % of control"
same,T/C,"dose: 200.0 mg/kg/injection, schedule: Q04DX002 (ip), evaluated on day 35","100, 104, 109 % of control"
same,survivor count,"dose: 200.0 mg/kg/injection, schedule: Q04DX002 (ip)",3 of 3 and 6 of 6
same,T/C,"dose: 200.0 mg/kg/injection, schedule: Q04DX003 (ip)","100, 101, 102, 104, 106 (3×), 106 [2 of 3 alive], 107, 108 (2×), 109, 110 (2×), 113 (3×), 114 (2×), 116 (7×), 117 (2×), 119, 120 (3×), 122, 126 % of control"
same,T/C,[4],"95, 100, 101, 102 (2×), 104 (3×), 104 [5 of 6 alive], 105 (2×), 106 (2×), 106 [5 of 6 alive], 107 (2×), 108 (2×), 109, 110 (3×), 111, 113 (2×), 118, 120, 121, 123, 124, 140 % of control"
same,survivor count,[4],0 of 6
same,T/C,"dose: 400.0 mg/kg/injection, schedule: Q01DX005 (ip), evaluated on day 30","86 (3×), 91, 95 [5 of 6 alive], 104, 113, 113 [5 of 6 alive], 115, 121, 123, 124, 125, 128 (2×), 129 (2×), 133 (2×), 137, 144, 175 % of control"
same,T/C,"dose: 400.0 mg/kg/injection, schedule: Q01DX005 (ip), evaluated on day 35",93 % of control
same,survivor count,"dose: 400.0 mg/kg/injection, schedule: Q01DX005 (ip)",3 of 3 and 6 of 6
same,T/C,"dose: 400.0 mg/kg/injection, schedule: Q01DX009 (ip), evaluated on day 30","86, 87, 88 (2×), 91, 92, 93, 94, 98, 100 (3×), 101, 102 (3×), 104, 105, 107, 109, 110, 111, 114, 116 [2 of 3 alive], 117, 119, 127, 176 % of control"
same,T/C,"dose: 400.0 mg/kg/injection, schedule: Q01DX009 (ip), evaluated on day 35",91 and 104 % of control
same,survivor count,"dose: 400.0 mg/kg/injection, schedule: Q01DX009 (ip)",3 of 3 and 6 of 6
same,T/C,"dose: 400.0 mg/kg/injection, schedule: Q04DX002 (ip), evaluated on day 30","99, 101, 106, 108 (5×), 109, 110 (2×), 111 (3×), 112 (3×), 113 (3×), 114 (2×), 115 (4×), 116, 117, 118, 121, 122, 123, 128 % of control"
same,T/C,"dose: 400.0 mg/kg/injection, schedule: Q04DX002 (ip), evaluated on day 35","111, 112, 113 % of control"
same,survivor count,"dose: 400.0 mg/kg/injection, schedule: Q04DX002 (ip)",3 of 3 and 6 of 6
same,T/C,"dose: 400.0 mg/kg/injection, schedule: Q04DX003 (ip)","102, 104 (2×), 106, 108 (2×), 110 (5×), 111 (3×), 113 (3×), 114, 115 (2×), 116 (3×), 117, 119 (3×), 120, 122 (2×), 126, 128, 139, 252 % of control"
